Results taken from the supplement of paper PMC3334620.
Over roughly 33,000 sequences, “E-score (-0.5 to 0.5)” has its median near -0.0034; the highest 2% begin near 0.25. The list shows a part of the results.

biological target: T1, Yap3 (UniProt P38749); experiment: PBM E-score (8-mer binding enrichment) (E-score (-0.5 to 0.5)); higher = stronger / more preferred TF binding; conditions: protein concentration: 100 nM; construct: GST-full length
T1 sequence: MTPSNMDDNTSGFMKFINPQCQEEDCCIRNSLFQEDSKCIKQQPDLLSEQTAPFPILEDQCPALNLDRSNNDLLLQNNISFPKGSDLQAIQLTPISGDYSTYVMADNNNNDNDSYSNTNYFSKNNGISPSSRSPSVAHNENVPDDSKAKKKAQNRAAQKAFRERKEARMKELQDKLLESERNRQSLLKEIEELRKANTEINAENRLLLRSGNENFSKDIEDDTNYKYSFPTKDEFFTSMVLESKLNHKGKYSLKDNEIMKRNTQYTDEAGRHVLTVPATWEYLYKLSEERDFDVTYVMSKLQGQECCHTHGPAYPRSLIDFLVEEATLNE
Method in brief: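 For each ungapped eight-base word taken together with its reverse complement, the Universal PBM Analysis Suite assigned an E-score. Binding data came from GST-tagged yeast transcription factors, applied at about 100-200 nM, on universal all-10-mer Agilent arrays made double-stranded by primer extension. Fluorescent anti-GST marked bound protein, and scans were normalised with masliner.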

Sequence | PBM E-score
CACAGAAA | 0.0474
CGTTGTGA | -0.0712
GTAGGAAC | 0.0852
GAATACCA | 0.0621
AAAGGGGC | -0.159
AAGCCGGG | -0.0754
TCCCTACA | 0.00164
AACGGCAA | 0.107
CGCGTAAA | 0.255
GCGACCAA | 0.174
CTCCCCAG | -0.313
ATGTGTTA | 0.2
TAGGTGAA | 0.0839
TCTCTTCA | 0.0113
AAAGCCTA | 0.0182
AGTCTCGC | 0.0823
CTAGGGCA | -0.311
ACCCTAAG | -0.0271
CATTCATA | 0.223
CTTGGTGC | -0.023
ATGCATAA | 0.117
CCTGCACA | -0.217
CCCGGTAC | -0.209
GAATCCTA | 0.0752
ATGCATCC | -0.0745

Fetched one by one from the list above (three):
Sequence | PBM E-score
CTTGGTGC | -0.023
AAAGCCTA | 0.0182
GAATCCTA | 0.0752

Following part:

Sequence | PBM E-score
AGTCCAAT | 0.0871
TCAACACA | 0.202
CTCAATAA | -0.0772
GTAGTCCA | -0.0936
CTCCTCAC | -0.171
GCTATCGA | 0.0538
AGGGCACG | -0.14
AAAGGGTC | -0.106
TACCGTAA | 0.205
GCGCGGCA | 0.0466
CATCTTTA | 0.0257
AAAATTAT | 0.257
ACATGGAT | 0.0692
AACTGCGT | -0.0561
ATAGTCCC | -0.0825
AACGACAC | 0.121
ATCCGGAA | 0.0743
ACCCTCTA | -0.174
GATGAACA | 0.0368
CTTGTTTC | 0.174
ATCTTCAT | 0.139
CCTCGGAA | 0.105
ACTCATAG | 0.0366
GCTTAGCA | -0.0606
CAAGCGAC | 0.0322

Sequence | PBM E-score
CCTCGTGC | -0.0823
CTAGCCCC | -0.155
ATCAGAGC | 0.149
AACGATAG | 0.116
ATACGTTA | 0.0384
GCACTAGA | -0.0688
CTTTTCAC | 0.171
CTGATTAA | 0.203
AATATGCC | -0.138
CTTGGTAC | 0.172
GGGACTAC | -0.117
CAATGCAC | -0.0637
CGAGCGGA | -0.0731
CAGTAATA | 0.307
ATTTGTTA | 0.166
GAGATTAA | 0.155
ACGGGCAG | 0.0291
CCACAGTA | 0.0572
CATTAATG | 0.212
AGAGGCTC | -0.2
AAATTGCT | 0.0524
CGCAGCAA | -0.143
AAGTACAG | 0.038
CCTGGGTC | -0.242
AGTTGATG | 0.142

Sequence | PBM E-score
ATCTGAAG | -0.0861
AATCGTTC | 0.0879
ATCTTATC | 0.11
CGTCCAAG | -0.0403
TGTCTAAA | 0.148
ACCCACAC | 0.0424
ATCCCAAG | -0.0397
GGGCGCTA | -0.249
CATAGATG | -0.138
GGAGAGCA | -0.156
GAGGGCGC | -0.238
GAGTTAAA | 0.0783
GGAAGGAC | -0.238
GACGCAGA | 0.0272
CGTGGAGC | 0.00438
CAGGAATG | -0.102
ATCCGTAA | 0.0684
ACAAGGCG | -0.0349
TCGCGCAA | 0.209
TTAAATAA | 0.155
GGATAGGA | 0.149
ACTTGGAT | 0.184
TGAGTAAA | 0.161
GAGCAGAA | -0.0517
CGCGCCTA | 0.16

Sequence | PBM E-score
CATGGTCG | -0.152
GGCAACCC | -0.255
CCTAAGAC | -0.162
AGGCGGCA | -0.238
AACTCGGG | -0.175
ACCCGCGA | 0.124
AGATGTCG | -0.0538
AGTTGTCG | 0.0191
ACTATGCT | 0.141
GAAATGGA | 0.139
CAACACTA | 0.159
AACACATT | 0.154
TATCAGAA | 0.0756
CTGCAGTC | -0.091
TCCGACCA | -0.0892
AATATAGT | 0.223
ATATGAAA | 0.234
ATAATTGG | 0.165
GTATTATA | 0.329
AGACTATG | -0.0546
ATAACCGG | -0.0881
ATGAGTTC | -0.0426
TGGTAACA | 0.109
GAAAACGA | 0.00196
CTCAGAGC | -0.152

Sequence | PBM E-score
AAAAAAAT | 0.226
GAGAAAAC | -0.00454
AGAGTAGC | -0.168
AAATTACC | 0.235
ACTTAAGA | 0.0692
CCGTCTGA | -0.0809
CCGTTTGA | -0.087
GTGCGGCA | -0.0567
ACAATAGC | -0.017
ACGGTATA | 0.0307
GAGGGAAC | -0.154
GAGGTAAA | -0.0475
AACGTGTC | -0.0769
GGAGAGCC | -0.234
TCAGGAGA | 0.11
CCGTAACG | -0.137
GGAACAAC | 0.157
CCGCTCAC | -0.123
GCTTACAC | -0.0515
ACGTTGGG | -0.0761
ATCCTGCC | -0.0423
CCATGAAG | -0.22
ATAGACGA | 0.192
AAGTGAAA | 0.197
ACTATTGC | 0.083

Sequence | PBM E-score
CTACAACA | 0.0611
GCGCACTA | 0.107
GCGCGCCC | -0.129
CGATGACA | 0.134
CTGGCGGA | -0.231
AGGATGTC | -0.0743
GAAACATA | 0.203
AGTTCAGA | -0.0786
CGCTCACA | -0.0758
AGGACCTG | -0.234
ATCAGCTA | 0.0675
CTAGCCCA | -0.156
ACACGGAT | 0.105
CGAGTGTA | -0.0629
CGCGAGTC | -0.101
CACCGCCC | -0.14
CTTGCTGA | -0.018
CCTATAGG | -0.221
AAGCTTCA | -0.0747
ACAATACT | 0.237
CTAGGACA | 0.0746
AACGTTGC | 0.0725

A different layout for part of the listing above.
CTGGCGGA
  PBM E-score: -0.231
GAAACATA
  PBM E-score: 0.203
AGTTCAGA
  PBM E-score: -0.0786
ATCAGCTA
  PBM E-score: 0.0675
